The text below walks through data of US10604476B2, “Fluorinated amide derivatives and their uses as therapeutic agents” (Trillium Therapeutics Inc., priority 2015, dated 2020).

The subject of data set [1] is maximal electroshock seizure. In words: Maximal Electroshock Seizure (MES) rat model. It counts as in vivo. Particulars: po, Table 7 (rotorod vs MES). As to the method: Male, Sprague-Dawley rats and CD-1 mice were used for all studies. All animals were allowed ad-lib access to food and water except during experiment. Animals were housed within an animal vivarium maintained under a 12 h light:dark cycle (lights on: 07:00 h), and all experiments were conducted in the animals light phase. For all experiments, animals were habituated to the vivarium for a minimum of 72 h before experimentation. The experimental procedures used in the present investigation were conducted under the Association for Assessment and Accreditation of Laboratory Animal Care (AAALAC) and the Canadian Council on Animal Care (CCAC) guidelines. All compounds were sonicated in 5% Tween 80® in saline or methylcellulose 0.5% (wgt/vol), using MC and sterile water and injected in a dose volume of 5 ml/kg or 10 ml/kg (rat), and 10 ml/kg (mouse). Drugs were administered by either the oral, intraperitoneal or intravenous route. Male Sprague-Dawley rats of body weight 80-100 g were used for these studies. Each experiment was conducted over 3 consecutive days. On day 1 and 2, each rat received a single electrical stimulus (150 mA, 0.2 s duration, 60 Hz) via corneal electrodes moistened with saline (Shock stimulator type 221: Harvard apparatus). […] Typically this reflected approximately 70-90% of the initial group. […] On the test day following a defined drug pretreatment period, rats received a maximal electroshock (150 mA, 0.2 s duration, 60 Hz) via corneal electrodes. Protection was defined as absence of a full tonic seizure within 10 s of stimulus delivery. Twenty minutes before the MES procedure, the animals were tested on a fixed speed rotorod (best score from 3 trials at 8 r.p.m, trial duration=60 s) to give an early assessment of drug effect on gross motor function.

For a further data set, the system named is 6 Hz psychomotor seizure. In words: Mouse 6 Hz model. It counts as in vivo. Particulars: Table 8 (rotorod vs 6 Hz). Here is the method:
Male, Sprague-Dawley rats and CD-1 mice were used for all studies. All animals were allowed ad-lib access to food and water except during experiment. Animals were housed within an animal vivarium maintained under a 12 h light:dark cycle (lights on: 07:00 h), and all experiments were conducted in the animals light phase. For all experiments, animals were habituated to the vivarium for a minimum of 72 h before experimentation. The experimental procedures used in the present investigation were conducted under the Association for Assessment and Accreditation of Laboratory Animal Care (AAALAC) and the Canadian Council on Animal Care (CCAC) guidelines. All compounds were sonicated in 5% Tween 80® in saline or methylcellulose 0.5% (wgt/vol), using MC and sterile water and injected in a dose volume of 5 ml/kg or 10 ml/kg (rat), and 10 ml/kg (mouse). Drugs were administered by either the oral, intraperitoneal or intravenous route. […] Preliminary experiments established that these stimulus parameters elicited a psychomotor seizure, defined as the expression of at least one of the following behaviors: stun/immobility, forelimb clonus, straub tail, vibrissae tremor, lateral head movement in >95% of control animals. Protection was defined as complete absence of all the above behaviors within 20 s of stimulus delivery. The effective dose of compound necessary to protect against psychomotor seizures to 50% of controls (i.e. ED50) was determined by curve fitting program (Prism v.4.02).
For orientation: Falling from the rotarod earlier than controls is read as motor impairment.

For the compound `NC(=O)COc1cc(C(F)(F)F)cc(C(F)(F)F)c1` [I(F), 2-[3,5 bis(trifluoromethyl)-phenoxy]acetamide;], the PI was over 27 in data set [1] and over 3.3 in the data set on 6 Hz psychomotor seizure.
For `C[C@@H](Oc1cc(Cl)cc(C(F)(F)F)c1)C(N)=O` [I(D), (2R)-2-[3-chloro-5-(trifluoromethyl)-phenoxy]propanamide] the same measures were over 22 and over 3.5.
In the case of `CN(CC(N)=O)c1cc(C(F)(F)F)cc(C(F)(F)F)c1` [I(A), 2-[(3,5-Bis-trifluoromethyl-phenyl)-methyl-amino]-acetamide], the PI in data set [1] is reported as over 10; in the data set on 6 Hz psychomotor seizure, over 2.5.
